Measurements: PMC8909987
Results are given in words; binding and its absence hold for the method and conditions named. A result given as binding can be weak or reduced; the word gives no strength. For part of these data: Binding seen in cells or lysates may run through a third protein.

By UniProt entry, the sequences of proteins in these tests, tags left out. Where a name states a change or a piece, a line headed by the entry shows the natural chain unless it says otherwise. Residues count along the entry.
UniProt O53281: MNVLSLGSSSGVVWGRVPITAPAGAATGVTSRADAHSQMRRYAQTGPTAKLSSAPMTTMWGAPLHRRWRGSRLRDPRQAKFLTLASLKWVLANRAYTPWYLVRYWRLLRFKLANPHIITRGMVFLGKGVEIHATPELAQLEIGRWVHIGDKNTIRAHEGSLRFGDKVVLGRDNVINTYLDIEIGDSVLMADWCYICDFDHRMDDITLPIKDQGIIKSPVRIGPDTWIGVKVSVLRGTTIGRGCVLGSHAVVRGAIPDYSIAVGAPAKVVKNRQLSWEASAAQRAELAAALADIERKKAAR
UniProt Q61830, residues 20-1456: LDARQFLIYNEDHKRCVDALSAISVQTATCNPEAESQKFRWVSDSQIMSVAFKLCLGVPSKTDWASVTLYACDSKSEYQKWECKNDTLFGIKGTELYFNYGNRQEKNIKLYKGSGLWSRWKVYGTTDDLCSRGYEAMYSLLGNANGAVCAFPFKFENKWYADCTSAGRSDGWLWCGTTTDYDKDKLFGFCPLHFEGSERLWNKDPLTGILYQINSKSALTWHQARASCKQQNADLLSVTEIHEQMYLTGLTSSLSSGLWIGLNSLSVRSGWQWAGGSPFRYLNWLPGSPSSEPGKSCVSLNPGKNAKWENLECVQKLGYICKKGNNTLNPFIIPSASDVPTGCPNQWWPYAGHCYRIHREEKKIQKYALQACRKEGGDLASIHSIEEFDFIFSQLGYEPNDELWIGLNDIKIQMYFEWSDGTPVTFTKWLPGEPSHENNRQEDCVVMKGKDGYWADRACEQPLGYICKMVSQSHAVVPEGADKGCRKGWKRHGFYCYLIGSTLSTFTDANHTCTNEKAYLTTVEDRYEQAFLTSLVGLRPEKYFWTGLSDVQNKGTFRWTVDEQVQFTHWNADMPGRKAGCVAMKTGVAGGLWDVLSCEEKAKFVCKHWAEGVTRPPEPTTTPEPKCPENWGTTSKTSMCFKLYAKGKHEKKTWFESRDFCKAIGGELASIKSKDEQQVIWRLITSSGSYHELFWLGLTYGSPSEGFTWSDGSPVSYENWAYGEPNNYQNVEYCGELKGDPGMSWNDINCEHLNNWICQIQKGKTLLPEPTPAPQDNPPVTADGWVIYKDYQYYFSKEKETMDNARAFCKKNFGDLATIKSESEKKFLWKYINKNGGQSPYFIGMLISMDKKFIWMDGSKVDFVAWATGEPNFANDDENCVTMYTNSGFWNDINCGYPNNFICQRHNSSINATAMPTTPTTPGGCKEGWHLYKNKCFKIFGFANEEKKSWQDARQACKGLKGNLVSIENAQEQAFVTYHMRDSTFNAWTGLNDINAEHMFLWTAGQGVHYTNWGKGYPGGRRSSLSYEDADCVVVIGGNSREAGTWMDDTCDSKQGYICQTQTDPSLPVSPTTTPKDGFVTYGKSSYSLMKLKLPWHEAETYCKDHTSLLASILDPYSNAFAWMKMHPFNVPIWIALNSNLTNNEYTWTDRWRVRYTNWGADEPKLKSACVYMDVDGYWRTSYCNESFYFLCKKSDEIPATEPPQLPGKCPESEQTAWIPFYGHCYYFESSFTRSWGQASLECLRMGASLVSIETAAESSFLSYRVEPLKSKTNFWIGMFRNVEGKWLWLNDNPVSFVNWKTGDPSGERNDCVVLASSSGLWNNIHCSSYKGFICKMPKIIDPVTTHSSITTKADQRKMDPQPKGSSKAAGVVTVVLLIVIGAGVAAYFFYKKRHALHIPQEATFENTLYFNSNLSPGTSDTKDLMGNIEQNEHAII

Experiments:
[1] = target: Mycobacterium tuberculosis acetyltransferase Rv3034c, His-tagged recombinant protein (Mycobacterium tuberculosis H37Rv) (UniProt O53281); assay: native gel or EMSA; only the target purified
[2] = target: Mycobacterium tuberculosis acetyltransferase Rv3034c, His-tagged recombinant protein (Mycobacterium tuberculosis H37Rv) (UniProt O53281); assay: co-incubation, SDS-PAGE and Western blot; only the target purified
[3] = target: Mycobacterium tuberculosis acetyltransferase Rv3034c, His-tagged recombinant protein (Mycobacterium tuberculosis H37Rv) (UniProt O53281); assay: pull-down; only the target purified

Measured: binding

macrophage mannose receptor (MR) (from UniProt Q61830 20-1456)
binds: all assays above
